Assay results from the supplement of paper PMC12823440, “Inhibitors supercharge kinase turnover through native proteolytic circuits” (Nature, 2025).
This is one part of the list. Hit calls seldom repeat between salt and free forms of one compound.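 In K562 cells expressing nanoluciferase-fused kinases, luminescence was recorded at 4 h intervals between 2 and 18 h, normalized as percent of control with DMSO at 100% and a positive control at 0%. A significant (2 sigma) signal drop marks a time point as decreased. The authors' rule for a hit is not shown and takes in more than the number of time points.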

Sequences of proteins named here, by UniProt entry; tags and fusion partners are left off. A change or cut given only in a name is not applied to a line headed by its entry.
UniProt Q9Y616: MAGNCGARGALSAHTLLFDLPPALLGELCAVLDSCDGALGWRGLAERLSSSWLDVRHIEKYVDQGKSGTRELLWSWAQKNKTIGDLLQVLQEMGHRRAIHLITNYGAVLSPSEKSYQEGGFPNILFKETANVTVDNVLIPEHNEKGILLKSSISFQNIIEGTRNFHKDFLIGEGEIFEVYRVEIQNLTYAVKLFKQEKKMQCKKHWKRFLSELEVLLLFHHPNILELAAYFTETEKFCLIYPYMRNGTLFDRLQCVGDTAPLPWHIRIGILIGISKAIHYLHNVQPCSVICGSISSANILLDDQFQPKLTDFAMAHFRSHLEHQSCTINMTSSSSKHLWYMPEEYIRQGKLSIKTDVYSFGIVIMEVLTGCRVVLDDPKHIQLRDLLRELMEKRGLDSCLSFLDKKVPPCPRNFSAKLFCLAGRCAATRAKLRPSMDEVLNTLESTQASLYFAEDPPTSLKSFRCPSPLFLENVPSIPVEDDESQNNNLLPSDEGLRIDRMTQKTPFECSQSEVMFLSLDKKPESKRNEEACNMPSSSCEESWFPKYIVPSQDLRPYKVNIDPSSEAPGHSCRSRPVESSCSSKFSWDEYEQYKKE

What follows are compounds tested against IRAK3 (UniProt Q9Y616) (assay: kinase-Nluc reporter destabilization hit call (1 = scored as downregulated) (binary); higher = compound decreases kinase abundance). Conditions: K562; 2-18 h.

kinase-Nluc reporter destabilization hit call, inactive:
COc1ccc([C@@H]2CC(=O)c3c(O)cc(O)cc3O2)cc1O [Hesperetin] (10 µM) 0
N#Cc1c(-c2ccccc2)cc(-c2cc(Br)ccc2O)[nH]c1=O (10 µM) 0
Cc1c(CN2CCN(C(=O)[C@H](C)O)CC2)sc2c(N3CCOCC3)nc(-c3cnc(N)nc3)nc12 [Apitolisib] (10 µM) 0
NC1(Cc2ccc(Cl)cc2)CCN(c2ncnc3[nH]ccc23)CC1 (10 µM) 0
O=C(/C=C/c1ccc(O)c(O)c1)c1ccc(O[C@@H]2O[C@H](CO)[C@@H](O)[C@H](O)[C@H]2O)c(O)c1O [Marein] (10 µM) 0
CN(CC(=O)N(Cc1ccc(C2CCCCC2)cc1)c1ccc(C(=O)O)cc1)S(=O)(=O)c1c(F)c(F)c(F)c(F)c1F (2.5 µM) 0
CC(C)NC(=O)N1CC[C@H](NC2=Nc3cc(F)ccc3N(CC(F)F)c3ccc(Cl)cc32)C1 (10 µM) 0
